Experimental data: PubChem BioAssay AID1259254 (NCATS, 2017)
The deposit covers about 59,000 reagents; shown is a random part of them. Of all reagents, about 1,550 (2.6%) are marked active. 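G2 share is only a proxy for re-replication; each gene was hit by three separate siRNAs, and active genes were retested.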 Reagents against one gene are numbered here. Not all columns of the deposit are shown. Not stated in the record: the amount of reagent.

Screen: 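Finding genes that stop cells copying their DNA twice in one cycle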 (primary screen)
Cell system: human HCT116 colorectal cancer cells
Reagents: single siRNA against human genes
Time to read-out: 3 days
Read-out: 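Imaged Hoechst DNA stain sorts each cell into a cycle phase by DNA amount; per plate, G2 fraction set to 0% for non-targeting and 100% for GMNN siRNA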
Direction: G2 robust z-score: higher = more G2 cells, more excess DNA replication
Rule for the call: 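Active siRNAs have a G2 robust z of 5 or more median absolute deviations over the median, which in these data means about 38% or higher of GMNN control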

G2 robust z-score, by gene and reagent
TAF1B: #1 3.22 inactive; #2 2.08 inactive; #3 -0.119 inactive
ABCA1: #1 -0.0263 inactive; #2 1.1 inactive; #3 2.19 inactive
NOVA2: #1 0.896 inactive; #2 -0.468 inactive; #3 -0.631 inactive
MFHAS1: #1 -1.44 inactive; #2 -0.631 inactive; #3 -0.878 inactive
AK7: #1 -0.526 inactive; #2 0.0883 inactive; #3 0.178 inactive
ACAP3: #1 0.71 inactive; #2 -0.587 inactive; #3 -1.1 inactive
ETNK2: #1 0.0677 inactive; #2 1.18 inactive; #3 3.79 inactive
ISOC1: #1 -0.398 inactive; #2 7.96 active; #3 -0.633 inactive
CSDC2: #1 1.56 inactive; #2 4.45 inactive; #3 2.69 inactive
PNOC: #1 -0.354 inactive; #2 -0.369 inactive; #3 0.332 inactive
PPP1R21: #1 0.27 inactive; #2 0.382 inactive; #3 -0.0434 inactive
DCP2: #1 1.32 inactive; #2 1.78 inactive; #3 -0.142 inactive
CD96: #1 -1.11 inactive; #2 1.12 inactive; #3 -0.441 inactive
PPM1M: #1 1.57 inactive; #2 -1.07 inactive; #3 1.09 inactive
KCTD12: #1 -0.0132 inactive; #2 2.28 inactive; #3 -0.389 inactive
PELP1: #1 -0.994 inactive; #2 -0.35 inactive; #3 -0.63 inactive
PGA5: #1 -0.402 inactive; #2 -0.473 inactive; #3 -0.104 inactive
IL15: #1 0.231 inactive; #2 0.0968 inactive; #3 -0.875 inactive
HDX: #1 0.47 inactive; #2 1.82 inactive; #3 -0.678 inactive
CYP4F12: #1 1.39 inactive; #2 2.96 inactive; #3 0.634 inactive
IL6: #1 1.06 inactive; #2 -0.837 inactive; #3 1.5 inactive
GRM5P1: #1 -0.851 inactive; #2 -0.298 inactive; #3 -0.691 inactive
INSM2: #1 -0.81 inactive; #2 0.386 inactive; #3 -0.922 inactive
MS4A2: #1 1.59 inactive; #2 -0.119 inactive; #3 -0.993 inactive
KRTAP5-2: #1 3.87 inactive; #2 -0.313 inactive; #3 0.729 inactive
ANAPC1P2: #1 0.372 inactive; #2 0.52 inactive; #3 -0.611 inactive
SLC71A1: #1 -0.197 inactive; #2 0.891 inactive; #3 0.456 inactive
NEU4: #1 -0.939 inactive; #2 0.306 inactive; #3 -1.24 inactive
IKBKG: #1 -0.542 inactive; #2 -0.112 inactive; #3 -0.384 inactive
